Test results as given in PubChem BioAssay AID651660 (Broad Institute, 2012).
Among all 1,900 compounds or so, about 15 (0.8%) were called active.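 How the source made its calls: active means every replicate shows at least 50% inhibition; inconclusive means mean inhibition at least 50% but some replicate below; inactive means the rest.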 This is one part of the list.

Sequences of proteins named here, by UniProt entry; tags and fusion partners are left off. A change or cut given only in a name is not applied to a line headed by its entry.
UniProt P43351: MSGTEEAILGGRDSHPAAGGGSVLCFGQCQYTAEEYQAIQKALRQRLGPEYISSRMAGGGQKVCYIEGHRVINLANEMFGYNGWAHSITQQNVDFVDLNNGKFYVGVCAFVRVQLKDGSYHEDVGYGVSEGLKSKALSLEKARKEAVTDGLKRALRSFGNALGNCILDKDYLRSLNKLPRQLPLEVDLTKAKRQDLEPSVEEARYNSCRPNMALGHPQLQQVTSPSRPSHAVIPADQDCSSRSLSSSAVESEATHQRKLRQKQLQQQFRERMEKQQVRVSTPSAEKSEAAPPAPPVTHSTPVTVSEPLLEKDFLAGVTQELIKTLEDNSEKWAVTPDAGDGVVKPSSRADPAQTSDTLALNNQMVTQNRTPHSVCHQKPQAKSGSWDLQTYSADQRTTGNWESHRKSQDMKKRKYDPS

What follows are compounds tested against DNA repair protein RAD52 homolog (Homo sapiens) (UniProt P43351) (assay: inhibition of RAD52-mediated strand annealing – biochemical, FRET, single point, primary screen (AID 651660;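 further: 0% = median of neutral control wells and 100% = median of positive control wells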)). Settings: Recombinant RAD52 ssDNA annealing, FRET fluorescence, 30 min; at 18.7 µM; active compounds read high.
In the case of CCCCC[C@H](O)/C=C/[C@@H]1[C@@H](C/C=C\CCCC(=O)O)[C@@H](O)C[C@H]1O, the inhibition is reported as inactive: -9.24%.
For Cc1nc(C(=O)Nc2ccccc2Cl)cc2c1[nH]c1ccccc12, the inhibition was inactive: -14%.
In the case of O=C1NC2(Nc3ccccc31)C(=O)Nc1ccc(Br)cc12 (centres undefined), the inhibition is reported as inactive: -0.104%.
COc1ccc2c(c1OC)C(=O)NC(C)=C(C(=O)OC(C)(C)C)C2O (centres undefined) was tested, and the inhibition was inactive: -15.6%.
For CC(=O)NC(Cc1ccccc1)C(=O)OCC(=O)c1ccccc1 (centres undefined), the inhibition was inactive: -8.26%.
COc1ccc(C(=O)/C=C/c2ccc(OC(=O)c3cc(OC)c(OC)c(OC)c3)cc2)cc1 was tested, and the inhibition was inactive: -50.8%.
For Cc1ccc2occ(C(=O)c3ccco3)c(=O)c2c1, the inhibition was inactive: -5.74%.
For O=C(NC(CO)Cc1ccc([N+](=O)[O-])cc1)C(Cl)Cl (centres undefined), the inhibition was inactive: -1.53%.
For COc1cccc(C2CC(=O)C3=C(C2)Nc2ccccc2N(C(=O)CCC(=O)O)C3c2ccc(F)cc2)c1 (centres undefined), the inhibition was inactive: -5.48%.
For CC(=O)NC(NC(=S)N1CCCCCC1)C(Cl)(Cl)Cl (centres undefined), the inhibition was inactive: -5.92%.
For COc1ccc(-c2nc(C)c(C(C)=O)n2O)cc1OC, the inhibition was inactive: -4.44%.
In the case of Cc1cnc(C(=O)N2CCCC(C(=O)c3ccc(Cl)cc3C)C2)cn1 (centres undefined), the inhibition is reported as inactive: 3.18%.
O=C(Cc1ccccc1)NCC(=O)OCC(=O)c1ccccc1Cl was tested, and the inhibition was inactive: -10%.
In the case of Cn1c(Oc2ccc3c(c2)OCO3)nc2c1c(=O)n(Cc1ccccc1)c(=O)n2C, the inhibition is reported as inactive: 3.48%.
For CCOc1ccc(C(=O)Nc2ccc(N3CCN(C(C)=O)CC3)cc2)cc1[N+](=O)[O-], the inhibition was inactive: -3.31%.
In the case of Fc1cccc(Cc2noc(CN3CCN(c4cnccn4)CC3)n2)c1, the inhibition is reported as inactive: -5.8%.
With COc1ccc2c(=O)c(-c3cnn(-c4ccccc4)c3)c(C)oc2c1 the inhibition was inactive: -8.23%.
CC(C)(C)NC[C@H](O)COc1nsnc1N1CCOCC1 was tested, and the inhibition was inactive: -3.38%.
With C[C@]12CCC(=O)C=C1CC[C@@H]1[C@@H]2[C@@H](O)C[C@@]2(C)[C@H]1CC[C@]2(O)C(=O)COC(=O)CCC(=O)O the inhibition was inactive: 1.61%.
For O=C(O)[C@H](Cc1ccccc1)NC(=O)N1CCC(Cc2ccccc2)CC1, the inhibition was inactive: -7.5%.
In the case of COc1ccc(CC(=O)NCC2(c3ccc(OC)c(OC)c3)CCOCC2)cc1, the inhibition is reported as inactive: -3.96%.
For COc1cc(COc2ccc3c(C)c(Cc4ccccc4)c(=O)oc3c2)cc(OC)c1OC, the inhibition was inactive: -0.647%.
For CCOc1ccc2nc(NC(=O)NC3CCCCC3)sc2c1, the inhibition was inactive: -0.863%.
For CC(C)Cc1cc(C(=O)N2CCC(N3CCC(C(=O)N4CCCC4)CC3)CC2)n[nH]1, the inhibition was inactive: -14.1%.
Nc1nc(SCc2ccc([N+](=O)[O-])cc2)c2ncn(C3OC(CO)C(O)C3O)c2n1 (centres undefined) was tested, and the inhibition was inactive: -11%.
In the case of O=C(N1CCCCC1)C1(c2ccccc2)CCOCC1, the inhibition is reported as inactive: 2.83%.
CCCC(=O)Nc1ncnc2c1ncn2[C@@H]1O[C@@H]2COP(=O)(O)O[C@H]2[C@H]1OC(=O)CCC was tested, and the inhibition was inactive: -4.1%.
For Cc1ccc(CN2CCN(Cc3cn[nH]c3C3CCCCC3)CC2CCO)cc1 (centres undefined), the inhibition was inactive: 5.04%.
In the case of CCc1cccc(OC2OC(CO)C(O)C(O)C2NC(C)=O)c1 (centres undefined), the inhibition is reported as inactive: -3.23%.
In the case of C=CCc1cccc2cc(C(=O)Nc3ccc(CC(=O)O)cc3)c(=O)oc12, the inhibition is reported as inactive: -2.75%.
In the case of CCCc1c(OCCCCc2nn[nH]n2)ccc(C(C)=O)c1O, the inhibition is reported as inactive: -4.88%.
For COc1cc(CNc2nnnn2C)ccc1OCc1ccc(F)cc1Cl, the inhibition was inactive: 9.16%.
For CCc1cc2c(C)cc(=O)oc2cc1OC(=O)C1CCCN1C(=O)OC(C)(C)C (centres undefined), the inhibition was inactive: -5.17%.
For O=C(COc1ccc2c(-c3ccccc3)cc(=O)oc2c1)NCc1cccs1, the inhibition was inactive: -4.65%.
With O=c1cc(-c2ccccc2)oc2cc(OCc3ccccc3)cc(O)c12 the inhibition was inactive: -13.9%.
C/C(=N\N=C1\NC(=O)C(CC(=O)Nc2ccc(Cl)cc2)S1)c1ccco1 (centres undefined) was tested, and the inhibition was inactive: -15.6%.
In the case of CC(=O)Nc1ccc2[nH]c(C)c(CC=C(Cl)Cl)c(=O)c2c1, the inhibition is reported as inactive: 6.74%.
In the case of CC(=O)OCC#CCSc1nc2ccccc2n1C, the inhibition is reported as inactive: -0.59%.
For CCCC(=O)O[C@]1(C(=O)COC(C)=O)CC[C@H]2[C@@H]3C[C@H](F)C4=CC(=O)C=C[C@]4(C)[C@@]3(F)[C@@H](O)C[C@@]21C, the inhibition was inactive: 15.2%.
O=C(NNC(=O)c1cccs1)c1ccco1 was tested, and the inhibition was inactive: 4%.
O=C(O)c1ccccc1C(=O)OCCCCOC(=O)c1ccccc1C(=O)O was tested, and the inhibition was inactive: -2.01%.
With CCn1c(O)c(/C=C2\C=Nc3ccccc32)sc1=O the inhibition was inactive: 8.58%.
With Nc1ccc(S(=O)(=O)c2ccc(N)cc2)cc1 the inhibition was inactive: 1.34%.
For OCCN1CCN(CCCN2c3ccccc3Sc3ccc(Cl)cc32)CC1, the inhibition was active: 73.4%.
With COC(=O)C1=C(C)N(C)C(=S)NC1c1ccc(Cl)cc1 (centres undefined) the inhibition was inactive: -2.19%.
O=C(c1cccnc1)N1N=C(C2CC2)CC1(O)C(F)(F)F (centres undefined) was tested, and the inhibition was inactive: -9.45%.
With COCc1cc(=O)[nH]c(Nc2nc3ccccc3o2)n1 the inhibition was inactive: 6.12%.
COC(=O)c1ccc(C(=O)OC)c(NC(=O)C(C)C)c1 was tested, and the inhibition was inactive: -2.12%.
With O=c1oc2c(CN3CCCCC3)c(O)ccc2c2c1CCCCC2 the inhibition was inactive: -17.5%.
With CC(=O)[C@@H]1[C@@H](C(=O)c2ccc(C)cc2)[C@]2(C(=O)Nc3ccccc32)[C@H]2C=Cc3cc(F)ccc3N12 the inhibition was inactive: -108%.
CC1CCCc2sc3ncn(N)c(=N)c3c21 (centres undefined) was tested, and the inhibition was inactive: -2.35%.
For COc1ccc2c(c1O)Cc1ccccc1C2=O, the inhibition was inactive: -3.51%.
With COc1cc2nc(N3CCN(C(=O)c4ccco4)CC3)nc(N)c2cc1OC the inhibition was inactive: 43.3%.
In the case of CCc1cc2c(=O)c(-c3nc4ccccc4n3C)coc2c(CN2CCN(C)CC2)c1O, the inhibition is reported as inactive: -1.25%.
In the case of COc1ccc(OC)c(-n2c(Cn3c(-c4ccccn4)nc4ccccc43)n[nH]c2=S)c1, the inhibition is reported as inactive: -4.09%.
CC(=O)Oc1ccc(C2OC(=O)c3ccccc3N2C(C)=O)cc1 (centres undefined) was tested, and the inhibition was inactive: 1.33%.
In the case of CC(=O)N1CC23C=CC(CC2CC12CCCCCC2)O3 (centres undefined), the inhibition is reported as inactive: 2.84%.
In the case of O=C(O)C1[C@H]2C(=O)N(C3CCCC3)C[C@]23C=C[C@H]1O3 (some centres undefined), the inhibition is reported as inactive: 8.01%.
For C#CCN(C)Cc1ccccc1, the inhibition was inactive: -3.73%.
O=c1c2ccccc2nnn1Cc1cccc2ccccc12 was tested, and the inhibition was inactive: 12.3%.
With COc1ccc2cc(CCC(C)=O)ccc2c1 the inhibition was inactive: 2.8%.
CC(=O)N(CCC(Cc1ccccc1)c1ccc2c(c1)OCO2)Cc1ccc(Cl)cc1 (centres undefined) was tested, and the inhibition was inactive: 16.3%.
For CCn1cc(C(=O)O)c(=O)c2ccc(C)nc21, the inhibition was inactive: -11.8%.
In the case of O=C(O)c1ccccc1OCCOc1ccccc1, the inhibition is reported as inactive: -5.9%.
In the case of COc1ccc2oc(=O)c(C(=O)Nc3ccccc3-c3ccccc3)cc2c1, the inhibition is reported as inactive: 13.8%.
In the case of CCN(CC)CCNC(=O)c1cc(S(C)(=O)=O)ccc1OC, the inhibition is reported as inactive: -0.689%.
In the case of CN/C(=C/[N+](=O)[O-])NCCSCc1ccc(CN(C)C)o1, the inhibition is reported as inactive: -14.2%.
COc1cc2oc(-c3ccc(O)cc3)cc(=O)c2c(OC)c1O was tested, and the inhibition was inactive: 31.7%.
For O=C(CCCN1CC=C(n2c(=O)[nH]c3ccccc32)CC1)c1ccc(F)cc1, the inhibition was inactive: 2.05%.
C=CCn1c(SCC(=O)NC2CCCCC2)nc2ccccc2c1=O was tested, and the inhibition was inactive: -8.73%.
In the case of CCc1cc2c(=O)c(-c3nc(C)cs3)coc2cc1OC(C)C(=O)NCCO (centres undefined), the inhibition is reported as inactive: -3.26%.
For O=C1CC[C@@H](CN(Cc2ccccc2)Cc2cn[nH]c2-c2cc3ccccc3o2)N1, the inhibition was inactive: 3.78%.
O=C(O)c1ccc(C(=O)C(=O)c2ccccc2)cc1 was tested, and the inhibition was inactive: -5.42%.
COc1ccc(CCN2CCC(Nc3nc4ccccc4n3Cc3ccc(F)cc3)CC2)cc1 was tested, and the inhibition was inactive: -68.5%.
Cc1ncc([N+](=O)[O-])n1CCO was tested, and the inhibition was inactive: 1.81%.
For O=C(COc1ccc(F)cc1)OCCN1CCOCC1, the inhibition was inactive: -9.42%.
For CCN(CC)CC#CCOC(=O)C(O)(c1ccccc1)C1CCCCC1 (centres undefined), the inhibition was inactive: 5.52%.
With CCN1CCN(C(=S)c2ccc(OC)cc2)CC1 the inhibition was inactive: 1.54%.
In the case of O=C1Cc2ccccc2C(c2ccccc2)N1 (centres undefined), the inhibition is reported as inactive: -8.11%.
With O=C(/C=C/c1ccccc1)c1ccccc1 the inhibition was inactive: -6.91%.
For Cn1cc(CN2CCN(CCO)CC2)c(-c2ccc(Oc3ccccc3)cc2)n1, the inhibition was inactive: 9.9%.
Cc1nc(NC(CC(C)C)C(=O)O)c2nc(C)oc2n1 (centres undefined) was tested, and the inhibition was inactive: -2.86%.
O=C(Nc1ncc2c(n1)CC(c1ccco1)CC2=O)c1ccco1 (centres undefined) was tested, and the inhibition was inactive: -27%.
In the case of COC(=O)c1[nH]c2ccc(C)cc2c1NC(=O)CN1CCc2cc(OC)c(OC)cc2C1, the inhibition is reported as inactive: 1.42%.
With COc1ccc(-c2[nH]ncc2C=O)cc1OC the inhibition was inactive: 9.17%.
For COc1ccc(-c2noc(-c3ccccc3-c3ccccc3)n2)cc1, the inhibition was inactive: 2.09%.
COc1ccc(C2CNC(=O)C2)cc1OC1CCCC1 (centres undefined) was tested, and the inhibition was inactive: 3.78%.
In the case of COc1cccc2c(=O)c(C/C=C(/C)Cl)c(C)[nH]c12, the inhibition is reported as inactive: -6.28%.
CC(C)c1ccc(/C=C/C(=O)O)cc1 was tested, and the inhibition was inactive: -7.81%.
With Cc1nc(-c2coc3c(CN(C)C)c(O)ccc3c2=O)cs1 the inhibition was inactive: 5.53%.
N#Cc1c2c(c(-c3ccccc3)[nH]c1=O)CCCC2 was tested, and the inhibition was inactive: -7.57%.
Cc1ccc(C(=O)N2CC3(C(C)C)CN(C(=O)c4ccc(C)cc4)CC(C(C)C)(C2)C3=O)cc1 was tested, and the inhibition was inactive: 0.667%.
With CCOc1cccc(N2C(=O)CC(N(CCc3ccc(OC)c(OC)c3)C(=O)CC)C2=O)c1 (centres undefined) the inhibition was inactive: -4.04%.
CCC(=O)O[C@]1(C(=O)CCl)[C@@H](C)C[C@H]2[C@@H]3CCC4=CC(=O)C=C[C@]4(C)[C@@]3(F)[C@@H](O)C[C@@]21C was tested, and the inhibition was inactive: 25.4%.
